Reference: PubChem BioAssay AID1671190 (National Center for Advancing Translational Sciences (NCATS), 2021)
Hit rate of the full screen: of about 580,000 compounds, about 6,100 (1.1%) were called active. Inconclusive results, whose numbers are uncertain, are shown with a selection of clear calls. The call rests on the fitted dose curve; in most records, active means well fitted inhibition curve with a large enough effect; inconclusive means small, poorly fitted or top-dose-only effect, or another doubt; inactive means no such curve, though single readings can be large or run the other way. A potency beside an inconclusive call is a rough fit, not a confirmed value.

By UniProt entry, the sequences of proteins in these tests, tags left out. Where a name states a change or a piece, a line headed by the entry shows the natural chain unless it says otherwise.
UniProt P18054: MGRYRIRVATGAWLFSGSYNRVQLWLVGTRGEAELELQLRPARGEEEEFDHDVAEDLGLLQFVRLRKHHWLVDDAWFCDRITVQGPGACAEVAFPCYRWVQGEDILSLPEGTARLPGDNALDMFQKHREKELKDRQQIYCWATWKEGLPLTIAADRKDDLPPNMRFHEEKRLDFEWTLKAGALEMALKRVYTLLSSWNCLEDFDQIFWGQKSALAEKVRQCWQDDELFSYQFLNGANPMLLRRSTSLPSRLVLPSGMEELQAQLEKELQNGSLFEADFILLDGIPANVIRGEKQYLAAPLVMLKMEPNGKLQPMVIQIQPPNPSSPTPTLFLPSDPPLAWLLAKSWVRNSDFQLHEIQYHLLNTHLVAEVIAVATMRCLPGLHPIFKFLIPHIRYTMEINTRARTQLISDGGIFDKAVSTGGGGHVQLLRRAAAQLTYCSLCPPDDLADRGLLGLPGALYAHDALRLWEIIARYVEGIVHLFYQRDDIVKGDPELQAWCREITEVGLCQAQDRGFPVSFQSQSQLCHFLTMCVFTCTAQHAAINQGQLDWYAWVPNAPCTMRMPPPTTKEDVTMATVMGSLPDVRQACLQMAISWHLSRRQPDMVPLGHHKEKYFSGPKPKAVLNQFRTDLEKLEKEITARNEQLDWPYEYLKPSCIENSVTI

The molecules below were run against Polyunsaturated fatty acid lipoxygenase ALOX12 (Homo sapiens) (UniProt P18054) (assay: Primary qHTS assay for inhibitors of human arachidonate 12S-lipoxygenase (ALOX12): Round 2). Details: purified 12hLO, xylenol orange hydroperoxide absorbance; activity change, negative = inhibition: at 108 µM (top of the series) unless noted.
Procedure, shortened: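 Purified human 12hLO at 150 nM in 25 mM Hepes, 0.01% Triton X-100, pH 7.0, preincubated 15 min at room temperature with compound. Reaction started with 40 uM arachidonic acid, 30 min at room temperature. Hydroperoxide measured by Fe-xylenol orange, 573/405 nm absorbance ratio.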
On the % scale 0 is the no-effect control and ±100 the full control effect; potency means the concentration at half of the fitted maximal effect.

| Compound | Potency | activity change, negative = inhibition |
| --- | --- | --- |
| O=C(c1[nH]c(C(F)(F)F)nc1-c1ccccc1)N1CCN(Cc2c(F)cccc2Cl)CC1 | inactive | – |
| Cc1nnc(NC(=O)c2cc(-c3ccco3)nc3ccccc23)s1 | inconclusive: 44.7 µM [inhibitor, partial curve, poor fit] | – |
| CCNCc1ccc(-c2ccccc2F)o1 | inconclusive: 89.1 µM [inhibitor, single point] | – |
| COc1ccc(CN2C(=O)C(n3ccc4ccccc43)c3cccc(F)c32)cc1 (configuration not stated) | inconclusive: 44.7 µM [inhibitor, partial curve, poor fit] | – |
| CCOC(=O)C(CN1CCCC1)c1ccccc1 (configuration not stated) | inconclusive: 7.08 µM [inhibitor, full curve, poor fit] | – |
| Cc1nc2ccccn2c1-c1ccnc(=S)[nH]1 | active: 15.8 µM | – |
| Cc1ccc2c(c1)C(c1ccccc1)N(C(=O)c1ccc(F)cc1)CC(=O)N2 (configuration not stated) | inconclusive: 0.316 µM [inhibitor, full curve, poor fit] | – |
| CC(=O)c1ccc(S(=O)(=O)Oc2ccc3ccc(=O)oc3c2)cc1 | inactive | – |
| Cc1cccc(C(=O)NCC(c2cccs2)N2CCCC2)n1 (configuration not stated) | inactive | – |
| COc1ccc(C2=C(O)C(=O)N(Cc3ccc(Cl)cc3)C2c2ccccc2F)cc1 (configuration not stated) | inconclusive: 7.94 µM [inhibitor, full curve, poor fit] | – |
| COc1cccc(Nc2ncc3nc(-c4cccs4)c(=O)n(Cc4cccs4)c3n2)c1 | inconclusive: 100 µM [inhibitor, single point] | – |
| CCOCCn1c(C2CCN(CCc3ccc(C(C)(C)C(=O)O)cc3)CC2)nc2ccccc21 | – | inactive: -4% [at 22.9 µM] |
| CN1CCN(CC(=O)C(C#N)c2ccccc2)CC1 (configuration not stated) | inconclusive: 39.8 µM [inhibitor, partial curve, poor fit] | – |
| Nc1c(Cl)cc(NC(=O)c2cnc3ccccc3n2)cc1Cl | inconclusive: 20 µM [inhibitor, partial curve, poor fit] | – |
| CCOc1ccc(-c2cc3c(=O)n(CCNC(=O)c4ccc(Cl)cc4)ccn3n2)cc1 | inconclusive: 89.1 µM [inhibitor, single point] | – |
| CC(C)(C)OC(=O)N1CCC(c2c(C(=O)Nc3ccc4c(c3)OCCO4)cnn2-c2ccc(F)cc2F)CC1 | inconclusive: 56.2 µM [inhibitor, partial curve, poor fit] | – |
| COc1ccc(OCCCC(=O)Nc2ccc3c(C)cc(=O)oc3c2)cc1 | inconclusive: 50.1 µM [inhibitor, partial curve, poor fit] | – |
| CCOC(=O)c1ccccc1NC(=O)c1ccccc1NS(C)(=O)=O | inactive | – |
| O=C(CCn1c(=O)oc2cc(Cl)ccc21)Nc1ccc(-c2nnc3n2CCCCC3)cc1 | inactive | – |
| COCCC(=O)N1CCC(N2CCCC(C(=O)NCc3ccccn3)C2)CC1 (configuration not stated) | inactive | – |
| Cc1ccc(-c2nc3c(c(SCC(=O)N(C)c4ccccc4)n2)Cc2c(CO)cnc(C)c2O3)cc1 | inconclusive: 63.1 µM [inhibitor, partial curve, poor fit] | – |

| Compound | Potency | activity change, negative = inhibition |
| --- | --- | --- |
| CN(CCO)C(=O)COc1cc(O)c2c(=O)cc(-c3ccccc3)oc2c1 | inactive | – |
| CCOc1ccc2[nH]c3c(N4CCc5ccccc5C4)ncnc3c2c1 | inconclusive: 50.1 µM [inhibitor, partial curve, poor fit] | – |
| O=Cc1ccc(-c2cc(Cl)c(Cl)cc2Cl)o1 | inconclusive: 1.12 µM [inhibitor, full curve, poor fit] | – |
| O=C(Nc1ccc(-c2nnnn2C2CC2)cc1)C1CCCC1 | inconclusive: 44.7 µM [inhibitor, partial curve, poor fit] | – |
| O=C(CSc1nc2cc(S(=O)(=O)N3CCOCC3)ccc2o1)N1CCOCC1 | inconclusive: 56.2 µM [inhibitor, partial curve, poor fit] | – |
| Cc1ccc(C(C)C)c(OCCCN2CCc3ccccc3C2)c1 | inconclusive: 50.1 µM [inhibitor, partial curve, poor fit] | – |
| CCCCCCCC1CC(/C(C)=N/NC(N)=O)OC1=O (configuration not stated) | inactive | – |
| COc1ccc(CN2CCC2(C)C(=O)NCCc2c[nH]c3ccccc23)c2ccccc12 (configuration not stated) | inconclusive: 56.2 µM [inhibitor, partial curve, poor fit] | – |
| Cc1ccc(/C=N/n2cnc3sc(-c4ccccc4)cc3c2=O)o1 | inconclusive: 35.5 µM [inhibitor, partial curve, poor fit] | – |
| CC1C(=O)N(Cc2ncc(-c3ccc(F)cc3)o2)C(=O)N1c1ccccc1 (configuration not stated) | inactive | – |
| CCOc1ccc(CCN2C(=S)N([C@@H](Cc3ccccc3)CN3CCC[C@@H]3CN3C(=S)NC[C@@H]3Cc3ccc(O)cc3)C[C@@H]2CC(C)C)cc1 | inconclusive: 44.7 µM [inhibitor, partial curve, poor fit] | – |
| Cc1ccc(S(=O)(=O)c2nc(Cc3ccccc3)oc2N2CCOCC2)cc1 | inconclusive: 50.1 µM [inhibitor, partial curve, poor fit] | – |
| COc1ccc(CNC(=O)CC[C@H]2CNC(=O)[C@@H]3[C@@H](CCN3Cc3cccc(Cl)c3)N2C)cc1 | inactive | – |
| COCC(=O)N(C)c1nnc(-c2ccccn2)s1 | inactive | – |
| COc1ccc(C2CC(=O)Oc3ccc(OC)cc32)cc1 (configuration not stated) | inconclusive: 35.5 µM [inhibitor, partial curve] | – |
| COc1cccc(/C=C/c2nc(C#N)c(NCCCn3ccnc3)o2)c1 | inactive | – |
| O=C(NCc1ccc2c(c1)CCN2C(=O)c1ccncc1)c1ccccc1Cl | – | inconclusive: -32.3% [inhibitor] |
| Cc1ccc(C(=O)N/N=C/c2ccc(N3CCOCC3)cc2)c(C)c1 | inactive | – |
| COc1cccc(Cn2c(=O)c(-c3ccc(Cl)cc3)nc3cnc(N4CCN(C)CC4)nc32)c1 | inconclusive: 31.6 µM [inhibitor, partial curve, poor fit] | – |
| COc1cc(C(=O)/C=C/c2cccnc2)ccc1O | inconclusive: 126 µM [inhibitor, single point] | – |
| C[C@H]1CN([C@@H](C)CO)C(=O)CCCn2nncc2CO[C@@H]1CN(C)Cc1ccccc1 | inconclusive: 22.4 µM [inhibitor, partial curve, poor fit] | – |

2 of the compounds above, with bars between the fields.
Compound | Potency | activity change, negative = inhibition
O=Cc1ccc(-c2cc(Cl)c(Cl)cc2Cl)o1 | inconclusive: 1.12 µM [inhibitor, full curve, poor fit] | –
O=C(Nc1ccc(-c2nnnn2C2CC2)cc1)C1CCCC1 | inconclusive: 44.7 µM [inhibitor, partial curve, poor fit] | –
